PubChem BioAssay AID1259425 – University of Nebraska Medical Center | 2018
Test: 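Find knockdowns that reproduce the gene expression pattern seen when KSR1 is lost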 (primary screen). Cell system: HCT116 human colon cancer cells. Reagents: siRNA pool against human genes, 50 nM siRNA. Read-out: 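mRNA of six signature genes measured together by branched-DNA assay after 50 nM siRNA pool, blank removed, divided by geometric mean of two housekeeping genes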. Direction: BNIP3L mRNA: higher = more BNIP3L transcript after knockdown.
The whole screen tested about 14,000 reagents; this is a random part of them. The numbers tell different reagents against one gene apart. Some reagents were tested in more than one well and are listed for each. Further read-outs or replicates are left out here. The record does not give: the time to read-out.

gene knocked down | reagent no. | BNIP3L mRNA, set 1
P2RY2 | 1 | 0.0702
P2RY2 | 1 | 0.0551
OR5F1 | 1 | 0.192
RAD21 | 1 | 0.15
TPTE2 | 1 | 0.124
CLEC4E | 1 | 0.111
SEMA4A | 1 | 0.138
SPANXC | 1 | 0.116
CYFIP1 | 1 | 0.147
DDX47 | 1 | 0.143
MTARC1 | 1 | 0.145
SIRPD | 1 | 0.106
BRSK2 | 1 | 0.164
INTS10 | 1 | 0.0879
COL6A2 | 1 | 0.11
TSLIG2 | 1 | 0.0576

Reformatted: results already given
gene knocked down	reagent no.	BNIP3L mRNA, set 1
P2RY2	1	0.0551
OR5F1	1	0.192
RAD21	1	0.15
TPTE2	1	0.124
CLEC4E	1	0.111

Continued:
gene knocked down | reagent no. | BNIP3L mRNA, set 1
ATP1B1 | 1 | 0.157
EMX2 | 1 | 0.0776
TUFT1 | 1 | 0.227
KIZ | 1 | 0.16
WASF2 | 1 | 0.0731
SLC27A5 | 1 | 0.063
SFXN3 | 1 | 0.129
FDFT1 | 1 | 0.125
RAD54B | 1 | 0.0928
RAD54B | 2 | 0.0583
SMPD3 | 1 | 0.121
MRPS24 | 1 | 0.12
PRKAB1 | 1 | 0.11
CHAC1 | 1 | 0.102
FDPS | 1 | 0.105
GEMIN5 | 1 | 0.0845
MAGEC2 | 1 | 0.086
TRIM68 | 1 | 0.115
SETX | 1 | 0.223
ZC3H4 | 1 | 0.183
UPK2 | 1 | 0.158
SRP14 | 1 | 0.171
ZFTRAF1 | 1 | 0.128
SLC25A27 | 1 | 0.0643
PSKH1 | 1 | 0.107
HMGA2 | 1 | 0.122
DUSP26 | 1 | 0.076
GPR83 | 1 | 0.246
SSTR5 | 1 | 0.0998
HSPA2 | 1 | 0.105
SLC8A3 | 1 | 0.15
TTC27 | 1 | 0.138
HEPH | 1 | 0.128
HERPUD1 | 1 | 0.0995
